From the supplement of paper PMC6411743
± gives the standard deviation of the averaged measurements. The list shows a part of the results.

Tests used:
Test in all cases: NP40-soluble protein abundance relative to vehicle (solubility fold change) (ratio); higher = more soluble protein in presence of GTP
[1] = biological target: T1, E9PKP0 and related entries (UniProt Q8TDP1)
T1 sequence (whole entry): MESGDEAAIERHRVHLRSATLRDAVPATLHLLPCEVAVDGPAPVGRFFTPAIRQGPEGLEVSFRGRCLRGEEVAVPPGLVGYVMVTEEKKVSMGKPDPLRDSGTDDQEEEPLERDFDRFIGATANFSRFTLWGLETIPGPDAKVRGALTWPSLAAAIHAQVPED
Outline: (§1)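 Across three independent experiments, values are fold changes against the detergent-processed vehicle for each replicate, based on vsn-normalised intensities. The samples were Jurkat crude lysate treated with eight concentrations (0.1 to 10 mM) for 10 min at room temperature and then 3 min at 37 °C. Lysate was solubilised with 0.8% NP40 and benzonase, ultracentrifuged, and the supernatant analysed by TMT-labelled LC-MS/MS.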

[2] = biological target: T2, E9PMW7 and related entries (UniProt P29692)
T2 sequence (whole entry): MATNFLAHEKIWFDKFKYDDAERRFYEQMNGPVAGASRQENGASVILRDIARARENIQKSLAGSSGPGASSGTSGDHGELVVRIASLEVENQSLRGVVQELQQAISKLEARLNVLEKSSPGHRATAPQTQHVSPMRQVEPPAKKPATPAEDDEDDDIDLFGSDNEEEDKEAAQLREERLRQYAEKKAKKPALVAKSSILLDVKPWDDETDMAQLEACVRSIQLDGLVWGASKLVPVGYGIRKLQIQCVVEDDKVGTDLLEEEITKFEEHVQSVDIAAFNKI
Outline: as §1

E9PNT2 = biological target: T3, E9PNT2 (UniProt Q6ZUM4)
T3 sequence (whole entry): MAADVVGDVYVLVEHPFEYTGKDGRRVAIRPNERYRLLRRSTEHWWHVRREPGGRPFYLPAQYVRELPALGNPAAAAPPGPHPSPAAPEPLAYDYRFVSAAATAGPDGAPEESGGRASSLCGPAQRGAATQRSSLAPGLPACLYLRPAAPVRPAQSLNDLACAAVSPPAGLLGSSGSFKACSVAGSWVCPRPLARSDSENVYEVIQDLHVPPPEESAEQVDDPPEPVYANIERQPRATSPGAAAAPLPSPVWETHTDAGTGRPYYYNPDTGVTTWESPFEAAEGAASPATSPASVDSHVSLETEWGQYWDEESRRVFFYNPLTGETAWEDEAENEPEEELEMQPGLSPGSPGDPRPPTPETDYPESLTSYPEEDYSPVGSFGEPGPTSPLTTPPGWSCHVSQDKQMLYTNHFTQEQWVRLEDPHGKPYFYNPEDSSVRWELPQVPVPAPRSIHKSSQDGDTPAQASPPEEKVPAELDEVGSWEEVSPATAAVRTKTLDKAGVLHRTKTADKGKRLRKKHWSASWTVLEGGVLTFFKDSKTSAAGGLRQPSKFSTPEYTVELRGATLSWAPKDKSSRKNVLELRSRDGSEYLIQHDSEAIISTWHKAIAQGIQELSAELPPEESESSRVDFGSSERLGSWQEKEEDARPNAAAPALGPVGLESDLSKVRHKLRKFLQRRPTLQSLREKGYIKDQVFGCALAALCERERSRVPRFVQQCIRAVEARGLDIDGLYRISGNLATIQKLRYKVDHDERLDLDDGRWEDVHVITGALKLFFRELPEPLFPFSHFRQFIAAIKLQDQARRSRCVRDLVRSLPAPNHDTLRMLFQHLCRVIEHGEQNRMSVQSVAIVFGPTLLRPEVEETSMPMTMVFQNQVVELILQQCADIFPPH
Outline: as §1

[3] = biological target: T4, E9PRZ1 and related entries (UniProt Q96ER3)
T4 sequence (whole entry): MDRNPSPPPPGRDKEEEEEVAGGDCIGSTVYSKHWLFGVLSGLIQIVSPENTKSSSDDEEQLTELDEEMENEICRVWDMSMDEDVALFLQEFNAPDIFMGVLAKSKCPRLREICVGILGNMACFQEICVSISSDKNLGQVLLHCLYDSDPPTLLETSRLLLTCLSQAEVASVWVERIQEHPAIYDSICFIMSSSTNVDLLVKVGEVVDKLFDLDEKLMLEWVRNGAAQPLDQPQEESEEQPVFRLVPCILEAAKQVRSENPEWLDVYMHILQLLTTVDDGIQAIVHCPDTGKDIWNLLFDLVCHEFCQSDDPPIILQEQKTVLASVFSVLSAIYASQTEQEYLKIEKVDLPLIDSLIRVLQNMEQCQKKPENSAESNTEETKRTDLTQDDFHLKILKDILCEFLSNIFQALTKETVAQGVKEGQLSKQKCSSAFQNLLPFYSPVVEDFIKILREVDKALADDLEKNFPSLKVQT
Outline: as §1

F5GX51 = biological target: T5, F5GX51 (UniProt Q9Y4F9)
T5 sequence (whole entry): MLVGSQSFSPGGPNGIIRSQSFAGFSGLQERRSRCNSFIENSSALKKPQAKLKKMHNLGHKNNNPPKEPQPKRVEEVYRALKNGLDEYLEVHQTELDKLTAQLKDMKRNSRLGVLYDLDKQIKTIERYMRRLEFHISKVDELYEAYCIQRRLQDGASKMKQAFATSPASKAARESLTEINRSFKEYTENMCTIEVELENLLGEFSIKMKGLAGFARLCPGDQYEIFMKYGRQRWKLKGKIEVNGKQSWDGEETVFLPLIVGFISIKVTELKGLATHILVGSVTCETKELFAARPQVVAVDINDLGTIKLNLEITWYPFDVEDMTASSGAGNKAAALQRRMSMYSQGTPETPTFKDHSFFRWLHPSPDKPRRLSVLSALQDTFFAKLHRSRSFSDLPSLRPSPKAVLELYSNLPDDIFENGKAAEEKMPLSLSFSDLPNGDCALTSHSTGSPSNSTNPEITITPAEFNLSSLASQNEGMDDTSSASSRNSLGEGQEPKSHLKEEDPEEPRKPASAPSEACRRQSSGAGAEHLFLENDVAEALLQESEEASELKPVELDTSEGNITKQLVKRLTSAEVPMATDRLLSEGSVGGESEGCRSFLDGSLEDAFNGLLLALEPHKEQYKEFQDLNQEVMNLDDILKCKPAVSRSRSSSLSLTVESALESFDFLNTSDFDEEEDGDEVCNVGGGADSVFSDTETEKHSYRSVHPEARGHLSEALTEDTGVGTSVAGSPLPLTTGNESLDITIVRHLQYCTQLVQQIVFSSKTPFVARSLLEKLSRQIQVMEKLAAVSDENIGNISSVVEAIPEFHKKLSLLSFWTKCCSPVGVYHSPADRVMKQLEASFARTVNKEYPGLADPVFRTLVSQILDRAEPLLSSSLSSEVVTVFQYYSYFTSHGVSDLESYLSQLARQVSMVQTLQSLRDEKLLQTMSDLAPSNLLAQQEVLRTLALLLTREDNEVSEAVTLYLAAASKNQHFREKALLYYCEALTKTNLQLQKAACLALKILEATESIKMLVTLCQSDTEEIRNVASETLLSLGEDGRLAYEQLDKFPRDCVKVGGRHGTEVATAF
Outline: as §1

Compound `Nc1nc2c(ncn2[C@@H]2O[C@H](COP(=O)(O)OP(=O)(O)OP(=O)(O)O)[C@@H](O)[C@H]2O)c(=O)[nH]1` [guanosine triphosphate] has an NP40-soluble protein abundance ([1]; concentration: 8mM) of 0.898 ± 0.064, an NP40-soluble protein abundance ([1]; concentration: 10mM) of 0.894 ± 0.064 and an NP40-soluble protein abundance ([2]; concentration: 0.1mM) of 0.949 ± 0.09. The NP40-soluble protein abundance ([2]; concentration: 0.5mM) was 0.949 ± 0.066, the NP40-soluble protein abundance ([2]; concentration: 1mM) was 1.07 ± 0.13 and the NP40-soluble protein abundance ([2]; concentration: 2mM) was 1.09 ± 0.095. The NP40-soluble protein abundance ([2]; concentration: 4mM) was 1.07 ± 0.11, the NP40-soluble protein abundance ([2]; concentration: 6mM) was 1.11 ± 0.11 and the NP40-soluble protein abundance ([2]; concentration: 8mM) was 1.07 ± 0.16. For the same compound, the NP40-soluble protein abundance ([2]; concentration: 10mM) was 1.14 ± 0.2, the NP40-soluble protein abundance (E9PNT2; concentration: 0.1mM) was 1.08 ± 0.034 and the NP40-soluble protein abundance (E9PNT2; concentration: 0.5mM) was 1.02 ± 0.044. The NP40-soluble protein abundance (E9PNT2; concentration: 1mM) was 1.02 ± 0.058, the NP40-soluble protein abundance (E9PNT2; concentration: 2mM) was 0.988 ± 0.035 and the NP40-soluble protein abundance (E9PNT2; concentration: 4mM) was 1.01 ± 0.024. The NP40-soluble protein abundance (E9PNT2; concentration: 6mM) was 0.984 ± 0.048, the NP40-soluble protein abundance (E9PNT2; concentration: 8mM) was 0.954 ± 0.051 and the NP40-soluble protein abundance (E9PNT2; concentration: 10mM) was 0.943 ± 0.068. The NP40-soluble protein abundance ([3]; concentration: 0.1mM) was 0.96 ± 0.033, the NP40-soluble protein abundance ([3]; concentration: 0.5mM) was 0.954 ± 0.042 and the NP40-soluble protein abundance ([3]; concentration: 1mM) was 0.9505 ± 0.007. For the same compound, the NP40-soluble protein abundance ([3]; concentration: 2mM) was 0.924 ± 0.042, the NP40-soluble protein abundance ([3]; concentration: 4mM) was 0.961 ± 0.051 and the NP40-soluble protein abundance ([3]; concentration: 6mM) was 0.909 ± 0.051. For the same compound, the NP40-soluble protein abundance ([3]; concentration: 8mM) was 0.891 ± 0.058, the NP40-soluble protein abundance ([3]; concentration: 10mM) was 0.924 ± 0.031 and the NP40-soluble protein abundance (F5GX51; concentration: 0.1mM) was 0.981 ± 0.032. For the same compound, the NP40-soluble protein abundance (F5GX51; concentration: 0.5mM) was 0.991 ± 0.021, the NP40-soluble protein abundance (F5GX51; concentration: 1mM) was 0.988 ± 0.084 and the NP40-soluble protein abundance (F5GX51; concentration: 2mM) was 0.994 ± 0.074.
